Results as given in publication PMC11090908.
No constants are given. Whether binding was seen depends on the method and setting. Some binding calls cover weakened binding; strength is not graded here. Tags and fused reporters may be left off the sequences shown.

Biological target: T1, GFP-Aurora-A (stably expressed in HeLa cells) (human), O14965
T1 chain: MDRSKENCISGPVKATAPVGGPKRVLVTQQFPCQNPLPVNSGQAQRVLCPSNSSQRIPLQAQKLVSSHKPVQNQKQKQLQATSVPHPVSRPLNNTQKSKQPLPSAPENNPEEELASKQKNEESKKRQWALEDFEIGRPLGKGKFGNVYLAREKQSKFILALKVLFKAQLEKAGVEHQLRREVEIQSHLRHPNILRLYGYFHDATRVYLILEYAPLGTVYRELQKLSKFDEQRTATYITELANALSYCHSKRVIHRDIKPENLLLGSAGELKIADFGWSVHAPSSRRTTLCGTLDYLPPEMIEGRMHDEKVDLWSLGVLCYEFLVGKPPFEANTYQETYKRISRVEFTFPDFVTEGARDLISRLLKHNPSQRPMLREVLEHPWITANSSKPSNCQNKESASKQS
Experiment: recruitment of a purified fluorescent protein to coated beads, seen by fluorescence microscopy; GFP beads coated with GFP-Aurora-A and its binding adaptors from lysate of mitotic HeLa cells; purified mCherry-tagged proteins added; only the binder purified
Conditions: remark: other sources report otherwise

B1: His-mCherry-Aurora-A, O14965 1-403 (protein)
chain: T1 chain
binding: binds
